# Results are given in words; binding and its absence hold for the method and conditions named. Some entries that bind do so weakly or less than the wild type. Tags and fused reporters may be left off the sequences shown.
# B1: A. thaliana RADIATION …23 (RAD23B) protein, yeast two-hybrid fusion (protein, UniProt Q84L33 1-371)
# chain: MKLTVKTLKGSHFEIRVLPSDTIMAVKKNIEDSQGKDNYPCGQQLLIHNGKVLKDETSLVENKVTEEGFLVVMLSKSKSGGSAGQASVQTSSVSQPVSATTSSTKPAAPSTTQSSPVPASPIPAQEQPAAQTDTYGQAASTLVSGSSLEQMVQQIMEMGGGSWDKETVTRALRAAYNNPERAVDYLYSGIPQTAEVAVPVPEAQIAGSGAAPVAPASGGPNSSPLDLFPQETVAAAGSGDLGTLEFLRNNDQFQQLRTMVHSNPQILQPMLQELGKQNPQLLRLIQENQAEFLQLVNEPYEGSDGEGDMFDQPEQEMPHAINVTPAEQEAIQRLEAMGFDRALVIEAFLACDRNEELAANYLLENSGDFED
# Tests used:
# [1] = target: T1, RPN10_38GA39 > HS (m1), yeast two-hybrid fusion (A. thaliana) (UniProt P55034); test: two-hybrid; directed assays, Matchmaker Gold (Clontech) or DUALhybrid (Dualsystems Biotech) system; growth on -L-W-H-A medium, 28°C, 5 days
# T1 sequence: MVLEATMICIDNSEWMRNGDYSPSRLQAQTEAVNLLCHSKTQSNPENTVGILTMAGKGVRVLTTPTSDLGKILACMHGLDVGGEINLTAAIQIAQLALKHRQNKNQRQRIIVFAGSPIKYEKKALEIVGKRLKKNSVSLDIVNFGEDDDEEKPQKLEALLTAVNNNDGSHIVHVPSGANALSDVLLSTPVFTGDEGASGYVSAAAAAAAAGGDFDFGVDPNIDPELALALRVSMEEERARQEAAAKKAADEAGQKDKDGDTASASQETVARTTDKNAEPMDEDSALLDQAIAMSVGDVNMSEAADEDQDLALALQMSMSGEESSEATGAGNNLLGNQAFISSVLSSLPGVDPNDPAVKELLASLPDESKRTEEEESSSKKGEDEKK
# [2] = target: T2, RPN10_56GKG58 > K (m2), yeast two-hybrid fusion (A. thaliana) (UniProt P55034); test: as above
# T2 sequence: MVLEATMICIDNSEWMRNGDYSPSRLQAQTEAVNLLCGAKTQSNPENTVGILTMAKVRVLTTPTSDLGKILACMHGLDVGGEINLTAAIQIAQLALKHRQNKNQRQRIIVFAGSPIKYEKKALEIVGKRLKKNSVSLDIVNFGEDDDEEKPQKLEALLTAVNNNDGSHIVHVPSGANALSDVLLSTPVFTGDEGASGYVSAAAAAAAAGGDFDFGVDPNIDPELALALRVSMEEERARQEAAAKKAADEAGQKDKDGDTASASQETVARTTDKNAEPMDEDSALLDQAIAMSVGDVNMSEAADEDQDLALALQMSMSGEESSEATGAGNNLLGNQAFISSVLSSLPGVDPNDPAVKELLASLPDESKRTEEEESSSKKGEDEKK
binder,measurement,setting,value
B1,binding,[1],binds
same,binding,[2],binds

# From paper PMC8525514
